# Measured values as given in the supplement of paper PMC11732987, “Enantioselective OTUD7B fragment discovery through chemoproteomics screening and high-throughput optimisation” (Communications Chemistry, 2025).
# The chains behind the UniProt entries cited, without tags or fusion partners. Where a name states a change or a piece, a line headed by the entry shows the natural chain unless it says otherwise.
# UniProt P09543: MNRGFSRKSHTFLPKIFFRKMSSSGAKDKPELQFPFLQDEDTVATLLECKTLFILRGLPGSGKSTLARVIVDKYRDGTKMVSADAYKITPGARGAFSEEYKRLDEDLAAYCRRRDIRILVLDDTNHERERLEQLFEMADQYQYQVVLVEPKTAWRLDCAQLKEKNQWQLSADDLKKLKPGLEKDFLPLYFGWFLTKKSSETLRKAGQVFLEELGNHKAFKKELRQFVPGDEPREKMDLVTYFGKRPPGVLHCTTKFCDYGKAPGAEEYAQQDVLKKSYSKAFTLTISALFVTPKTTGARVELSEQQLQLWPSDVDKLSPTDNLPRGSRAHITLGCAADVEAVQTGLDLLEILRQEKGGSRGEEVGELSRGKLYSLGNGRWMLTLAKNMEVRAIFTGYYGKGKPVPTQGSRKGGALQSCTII
# UniProt P36551: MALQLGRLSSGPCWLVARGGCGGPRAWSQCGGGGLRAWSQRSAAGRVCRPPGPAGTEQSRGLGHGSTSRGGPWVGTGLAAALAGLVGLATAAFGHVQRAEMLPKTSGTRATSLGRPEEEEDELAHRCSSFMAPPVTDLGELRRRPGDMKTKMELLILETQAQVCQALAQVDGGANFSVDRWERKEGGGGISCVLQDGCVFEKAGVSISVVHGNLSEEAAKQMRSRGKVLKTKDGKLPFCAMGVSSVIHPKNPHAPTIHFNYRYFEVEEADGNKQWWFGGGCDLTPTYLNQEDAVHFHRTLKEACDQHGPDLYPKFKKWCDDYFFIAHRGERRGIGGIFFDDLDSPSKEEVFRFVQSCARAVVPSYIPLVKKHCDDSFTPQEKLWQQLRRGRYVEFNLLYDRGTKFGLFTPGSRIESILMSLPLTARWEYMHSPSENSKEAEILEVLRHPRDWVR
# UniProt P61201: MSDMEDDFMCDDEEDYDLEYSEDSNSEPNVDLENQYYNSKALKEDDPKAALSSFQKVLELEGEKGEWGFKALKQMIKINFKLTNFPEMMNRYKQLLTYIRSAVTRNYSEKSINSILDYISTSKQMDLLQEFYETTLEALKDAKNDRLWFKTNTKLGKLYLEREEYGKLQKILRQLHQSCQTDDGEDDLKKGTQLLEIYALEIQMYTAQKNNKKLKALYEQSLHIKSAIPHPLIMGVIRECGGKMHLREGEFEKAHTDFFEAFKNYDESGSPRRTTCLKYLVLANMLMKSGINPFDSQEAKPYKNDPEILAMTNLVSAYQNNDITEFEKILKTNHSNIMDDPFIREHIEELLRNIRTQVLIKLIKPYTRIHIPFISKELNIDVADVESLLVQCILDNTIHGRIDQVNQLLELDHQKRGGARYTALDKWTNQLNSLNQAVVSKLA
# UniProt P53618: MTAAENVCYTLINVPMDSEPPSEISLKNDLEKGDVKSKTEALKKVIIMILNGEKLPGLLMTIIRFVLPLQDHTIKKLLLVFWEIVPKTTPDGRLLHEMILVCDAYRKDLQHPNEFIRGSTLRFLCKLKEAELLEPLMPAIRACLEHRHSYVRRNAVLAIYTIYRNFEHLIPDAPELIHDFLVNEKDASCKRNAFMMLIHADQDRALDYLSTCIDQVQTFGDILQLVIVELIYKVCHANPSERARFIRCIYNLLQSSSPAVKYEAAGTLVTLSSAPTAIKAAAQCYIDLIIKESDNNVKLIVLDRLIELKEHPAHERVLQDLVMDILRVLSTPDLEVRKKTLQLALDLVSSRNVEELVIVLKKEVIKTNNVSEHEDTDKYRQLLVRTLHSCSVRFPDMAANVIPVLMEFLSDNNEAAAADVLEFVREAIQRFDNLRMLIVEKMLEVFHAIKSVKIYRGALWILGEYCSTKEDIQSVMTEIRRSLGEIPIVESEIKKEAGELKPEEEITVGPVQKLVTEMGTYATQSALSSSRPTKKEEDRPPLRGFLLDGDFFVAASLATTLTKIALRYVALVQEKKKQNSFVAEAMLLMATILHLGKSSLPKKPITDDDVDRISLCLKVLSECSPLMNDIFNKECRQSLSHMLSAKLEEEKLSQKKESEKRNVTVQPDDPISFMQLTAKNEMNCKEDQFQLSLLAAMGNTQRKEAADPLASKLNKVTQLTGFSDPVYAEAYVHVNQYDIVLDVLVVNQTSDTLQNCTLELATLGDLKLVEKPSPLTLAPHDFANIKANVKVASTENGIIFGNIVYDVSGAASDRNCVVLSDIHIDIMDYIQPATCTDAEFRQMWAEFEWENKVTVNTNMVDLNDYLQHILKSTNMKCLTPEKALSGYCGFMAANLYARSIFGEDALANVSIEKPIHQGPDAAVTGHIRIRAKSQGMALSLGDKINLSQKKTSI
# UniProt Q9ULV4: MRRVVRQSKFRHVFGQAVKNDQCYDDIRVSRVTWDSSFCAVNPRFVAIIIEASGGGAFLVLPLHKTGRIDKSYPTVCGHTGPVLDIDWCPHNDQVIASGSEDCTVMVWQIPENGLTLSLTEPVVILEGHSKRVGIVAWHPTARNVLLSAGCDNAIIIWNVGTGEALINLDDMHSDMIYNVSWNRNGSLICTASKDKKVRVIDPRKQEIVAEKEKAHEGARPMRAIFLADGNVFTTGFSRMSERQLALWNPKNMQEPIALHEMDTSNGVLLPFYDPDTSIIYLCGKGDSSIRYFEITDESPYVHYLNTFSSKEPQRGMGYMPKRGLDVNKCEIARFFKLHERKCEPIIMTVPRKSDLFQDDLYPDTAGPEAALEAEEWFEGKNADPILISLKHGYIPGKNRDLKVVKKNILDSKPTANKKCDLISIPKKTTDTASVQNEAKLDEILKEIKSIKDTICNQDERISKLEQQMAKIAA
# UniProt O75131: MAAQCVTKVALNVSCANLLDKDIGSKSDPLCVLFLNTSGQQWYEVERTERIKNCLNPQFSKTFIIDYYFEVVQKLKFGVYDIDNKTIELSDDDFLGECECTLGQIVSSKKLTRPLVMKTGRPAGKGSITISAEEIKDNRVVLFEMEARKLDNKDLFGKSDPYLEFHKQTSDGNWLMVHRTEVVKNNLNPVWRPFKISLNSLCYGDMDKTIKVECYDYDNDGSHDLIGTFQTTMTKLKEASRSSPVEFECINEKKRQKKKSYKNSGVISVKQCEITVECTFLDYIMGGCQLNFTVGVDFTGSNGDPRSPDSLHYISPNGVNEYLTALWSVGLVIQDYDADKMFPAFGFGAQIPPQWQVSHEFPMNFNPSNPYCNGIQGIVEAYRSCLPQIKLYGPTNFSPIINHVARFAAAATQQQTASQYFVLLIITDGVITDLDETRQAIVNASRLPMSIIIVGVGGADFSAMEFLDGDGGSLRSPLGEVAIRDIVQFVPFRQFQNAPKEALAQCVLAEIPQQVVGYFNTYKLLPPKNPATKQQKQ
# UniProt Q96MW5: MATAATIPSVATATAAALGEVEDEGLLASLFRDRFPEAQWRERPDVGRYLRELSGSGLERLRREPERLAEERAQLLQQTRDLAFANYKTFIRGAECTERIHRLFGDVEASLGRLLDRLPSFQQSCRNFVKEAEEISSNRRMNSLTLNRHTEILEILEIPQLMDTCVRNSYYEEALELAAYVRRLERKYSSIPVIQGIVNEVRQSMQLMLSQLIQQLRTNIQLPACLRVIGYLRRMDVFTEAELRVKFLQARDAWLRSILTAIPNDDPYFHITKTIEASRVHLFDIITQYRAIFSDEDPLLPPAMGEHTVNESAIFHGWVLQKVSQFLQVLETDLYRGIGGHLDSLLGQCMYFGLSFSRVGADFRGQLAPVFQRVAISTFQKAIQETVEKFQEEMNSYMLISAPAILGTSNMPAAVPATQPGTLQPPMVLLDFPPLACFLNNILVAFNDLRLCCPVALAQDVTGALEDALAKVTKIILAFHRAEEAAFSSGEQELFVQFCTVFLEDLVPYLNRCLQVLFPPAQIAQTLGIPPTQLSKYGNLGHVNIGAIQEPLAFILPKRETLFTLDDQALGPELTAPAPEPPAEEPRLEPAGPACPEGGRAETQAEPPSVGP
# UniProt Q8WVB6: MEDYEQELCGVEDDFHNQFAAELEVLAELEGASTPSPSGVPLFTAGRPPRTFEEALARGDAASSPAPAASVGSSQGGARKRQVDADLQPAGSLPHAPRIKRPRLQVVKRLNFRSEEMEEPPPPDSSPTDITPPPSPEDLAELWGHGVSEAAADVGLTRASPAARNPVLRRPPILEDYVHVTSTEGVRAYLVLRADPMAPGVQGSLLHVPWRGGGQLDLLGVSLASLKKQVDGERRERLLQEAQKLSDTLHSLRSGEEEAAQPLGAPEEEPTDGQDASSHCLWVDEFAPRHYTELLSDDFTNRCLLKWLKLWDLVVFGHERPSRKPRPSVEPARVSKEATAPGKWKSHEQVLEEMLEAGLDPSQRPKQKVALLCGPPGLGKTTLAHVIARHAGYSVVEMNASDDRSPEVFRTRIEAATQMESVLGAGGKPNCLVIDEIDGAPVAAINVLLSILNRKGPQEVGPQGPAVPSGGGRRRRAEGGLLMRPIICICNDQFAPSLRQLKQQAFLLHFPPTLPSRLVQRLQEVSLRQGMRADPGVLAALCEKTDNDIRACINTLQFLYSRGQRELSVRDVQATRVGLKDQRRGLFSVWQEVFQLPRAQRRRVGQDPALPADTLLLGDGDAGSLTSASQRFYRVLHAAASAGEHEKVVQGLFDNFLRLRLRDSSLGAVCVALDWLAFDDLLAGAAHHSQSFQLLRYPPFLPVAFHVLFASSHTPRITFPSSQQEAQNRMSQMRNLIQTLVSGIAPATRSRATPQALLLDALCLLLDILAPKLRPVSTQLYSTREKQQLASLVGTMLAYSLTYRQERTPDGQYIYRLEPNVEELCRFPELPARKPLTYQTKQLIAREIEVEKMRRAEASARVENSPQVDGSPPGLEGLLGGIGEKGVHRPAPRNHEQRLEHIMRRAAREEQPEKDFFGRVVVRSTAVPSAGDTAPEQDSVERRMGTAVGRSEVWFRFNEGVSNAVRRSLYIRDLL
# UniProt Q9UBI1: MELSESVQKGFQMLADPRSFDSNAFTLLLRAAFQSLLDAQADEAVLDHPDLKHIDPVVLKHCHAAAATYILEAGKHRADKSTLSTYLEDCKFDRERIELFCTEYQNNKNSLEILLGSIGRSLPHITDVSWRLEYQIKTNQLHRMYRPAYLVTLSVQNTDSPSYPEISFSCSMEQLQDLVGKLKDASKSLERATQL
# UniProt Q8NFW8: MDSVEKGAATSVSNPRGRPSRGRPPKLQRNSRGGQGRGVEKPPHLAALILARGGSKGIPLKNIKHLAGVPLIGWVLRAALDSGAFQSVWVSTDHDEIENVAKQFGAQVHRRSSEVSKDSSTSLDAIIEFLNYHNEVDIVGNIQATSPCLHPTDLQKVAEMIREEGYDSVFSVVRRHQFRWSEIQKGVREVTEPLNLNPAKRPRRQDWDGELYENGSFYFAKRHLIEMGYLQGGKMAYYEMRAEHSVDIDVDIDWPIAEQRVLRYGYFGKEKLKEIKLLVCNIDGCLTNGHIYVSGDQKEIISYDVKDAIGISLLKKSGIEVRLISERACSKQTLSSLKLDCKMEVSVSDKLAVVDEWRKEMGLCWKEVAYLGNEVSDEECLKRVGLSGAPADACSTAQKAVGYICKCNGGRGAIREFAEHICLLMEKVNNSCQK
# UniProt Q9UNS2: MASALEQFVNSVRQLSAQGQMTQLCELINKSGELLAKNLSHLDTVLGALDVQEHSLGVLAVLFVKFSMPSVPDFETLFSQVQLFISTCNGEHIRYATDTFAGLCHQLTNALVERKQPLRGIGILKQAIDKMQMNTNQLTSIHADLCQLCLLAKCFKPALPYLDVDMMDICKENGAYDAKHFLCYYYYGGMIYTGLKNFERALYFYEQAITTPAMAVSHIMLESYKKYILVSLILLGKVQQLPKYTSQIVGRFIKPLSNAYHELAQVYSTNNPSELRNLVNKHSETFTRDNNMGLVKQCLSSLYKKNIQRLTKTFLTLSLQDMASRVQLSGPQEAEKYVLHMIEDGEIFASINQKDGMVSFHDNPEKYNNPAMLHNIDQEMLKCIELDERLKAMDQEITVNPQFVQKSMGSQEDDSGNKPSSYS
# UniProt Q96BR5: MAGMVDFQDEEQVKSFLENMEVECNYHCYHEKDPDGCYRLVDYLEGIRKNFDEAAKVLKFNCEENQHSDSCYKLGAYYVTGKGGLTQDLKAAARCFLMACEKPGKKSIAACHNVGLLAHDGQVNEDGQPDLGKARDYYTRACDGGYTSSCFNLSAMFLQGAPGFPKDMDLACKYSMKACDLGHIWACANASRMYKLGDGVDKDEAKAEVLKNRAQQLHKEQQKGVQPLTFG
# This is one part of the list. The data scatter; read single values as rough.
# Compound: ClCC(=O)N[C@H]1CCCc2ccccc12
# Test: log2 mean competition ratio of IA-DTB cysteine labelling (DMSO/compound) (log2 ratio); higher = stronger cysteine engagement by compound
# Settings: 50 µM; treatment time: 4 h; cell line lysate: HEK293T
# Method: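 IA-DTB competitive cysteine chemoproteomics in HEK293T RIPA lysate. Lysates were treated with compound 29 or 30 at 50 or 200 µM for 4 h, then IA-DTB (500 µM, 1 h), trypsin-digested, NeutrAvidin-enriched and analysed by diaPASEF. Competition ratio = intensity DMSO / intensity compound (n=4 treated, n=64 DMSO); binding: mean log2 CR ≥ 1 and p ≤ 0.05 plus QC filters. Target is the cysteine site.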
row,Target,log2 mean competition ratio
1,CNP C111 (UniProt P09543),-0.184
2,CLTCL1 C753 (UniProt P53675),-0.114
3,CPOX C373 (UniProt P36551),0.0872
4,COPS2 C179 (UniProt P61201),-0.266
5,CLMN C353,-0.121
6,COPB1 C390 (UniProt P53618),0.123
7,CORO1C C456 (UniProt Q9ULV4),-0.229
8,CPNE3 C5 (UniProt O75131),0.201
9,COG8 C96 (UniProt Q96MW5),0.0993
10,CIC C336,-0.0869
11,CHTF8 C83,-0.0153
12,CHTF18 C373 (UniProt Q8WVB6),-0.383
13,CPE C300,0.453
14,COMMD3 C90 (UniProt Q9UBI1),-0.309
15,CPNE1 C53 (UniProt Q99829),0.69
16,CMAS C364 (UniProt Q8NFW8),-0.104
17,COPS3 C383 (UniProt Q9UNS2),-0.24
18,CLIC1 C24 (UniProt O00299),-0.458
19,CKMT1B C179,-0.881

# Same assay, conditions: 200 µM; treatment time: 4 h; cell line lysate: HEK293T
row,Target,log2 mean competition ratio
1,CNP C111 (UniProt P09543),0.251
2,CLTCL1 C753 (UniProt P53675),0.495
3,CPOX C373 (UniProt P36551),0.401
4,COPS2 C179 (UniProt P61201),-0.367
5,CLMN C353,-0.136
6,COPB1 C390 (UniProt P53618),-0.35
7,CORO1C C456 (UniProt Q9ULV4),-0.505
8,CPNE3 C5 (UniProt O75131),-0.361
9,COG8 C96 (UniProt Q96MW5),0.596
10,CIC C336,-0.208
11,CHTF8 C83,-0.053
12,CHTF18 C373 (UniProt Q8WVB6),-0.0954
13,CPE C300,0.508
14,COMMD3 C90 (UniProt Q9UBI1),-0.175
15,CPNE1 C53 (UniProt Q99829),-0.361
16,CMAS C364 (UniProt Q8NFW8),0.0716
17,COA7 C172 (UniProt Q96BR5),0.136
18,COPS3 C383 (UniProt Q9UNS2),0.229
19,CLIC1 C24 (UniProt O00299),-0.207
20,CKMT1B C179,-2.14
